Out of some 300,000 compounds screened, about 3,700 (1.2%) were called active. The shares of active, inactive and inconclusive entries below differ from those in the screen. Calls come from the whole dose curve; tested in HEK293 cells. Potencies of inconclusive entries are doubtful fits and often do not repeat.
assay: qHTS for Inhibitors of binding or entry into cells for Lassa Virus; conditions: Lassa virus pseudotype entry inhibition, cell reporter; activity change, negative = inhibition: at 37.9 µM (top of the series) unless noted; note: nearly all actives have a fitted effect of over 50% in size
% is set by controls: 0 for no effect and ±100 for the full control effect; potency is the fitted concentration of half-maximal effect.

| Compound | Potency | activity change, negative = inhibition |
| --- | --- | --- |
| CCc1ccccc1Nc1nc(N)nc(COC(=O)c2cccn2C)n1 | inconclusive: 6.51 µM [inhibitor, partial curve, poor fit] |  |
| O=c1c(O)c(-c2cc(O)c(O)c(O)c2)oc2cc(O)cc(O)c12 | inconclusive: 22.3 µM [inhibitor, partial curve] |  |
| CC(=O)N1CCC(=NNc2ccc(S(=O)(=O)N3CCOCC3)cc2[N+](=O)[O-])CC1 | inconclusive: 4.61 µM [inhibitor, partial curve, poor fit] |  |
| C/C(=N\NC(=S)NCc1ccccc1)c1ccc(Cl)cc1 | active: 5.8 µM |  |
| O=c1cnn(-c2ccc(Cl)cc2Cl)c(-c2ccccc2)c1 | inconclusive: 35.5 µM [inhibitor, single point] |  |
| COc1ccccc1NC(=O)Cn1cc(C(=O)c2ccco2)c2ccccc21 | inconclusive: 11.2 µM [inhibitor, partial curve] |  |
| NNc1nc2sc3c(c2c(=O)n1C1CCCCC1)CCN(Cc1ccccc1)C3 |  | inactive: -14.7% |
| CSc1ccc(CN(C)C(=O)CNC(=O)c2sc3ccccc3c2Cl)cc1 | inconclusive: 35.5 µM [inhibitor, single point] |  |
| Cc1ccc(C(=O)/C=C\Nc2ccc(C)c(C)c2)cc1 | inconclusive: 12.6 µM [inhibitor, single point] |  |
| CC1CCN(c2nc3ccc(C(=O)N4CCN(c5ccccc5)CC4)cc3s2)CC1 | inconclusive: 0.562 µM [activator, full curve, poor fit] |  |
| Cc1nn(-c2ccccc2)c(C)c1/C=N/n1cnnc1 |  | inactive: -3.18% |
| O=C(NC1CCCCC1)C(=O)c1c(-c2ccccc2)[nH]c2ccccc12 |  | inactive: -18% |
| O=c1c2ccccc2nc(/C=C/c2cccnc2)n1CCc1ccccc1 | inconclusive: 35.5 µM [inhibitor, single point] |  |
| CNC(=S)N/N=C/c1ccccc1OCC(=O)O |  | inactive: 6.46% |
| CC(Sc1nnc2c(n1)C1(C)CCC2C1(C)C)C(=O)Nc1ccccc1 (stereo unspecified) | inconclusive: 9.2 µM [inhibitor, partial curve] |  |
| COC(=O)c1ccccc1NC(=S)NC(=O)CC(C)C |  | inactive: 6.46% |
| Cc1ccc(CNC(=O)Cc2ccc(-n3cccc3)cc2)cc1 | inconclusive: 6.31 µM [inhibitor, single point] |  |
| O=C(COC(=O)c1ccccc1-n1cnnn1)c1ccc(F)cc1 |  | inactive: -26.2% |
| O=C(CC(=O)NC1CCCCC1)N/N=C/c1ccccc1Cl |  | inactive: 2.19% |
| N#Cc1ccc(CSc2nnc(Cc3cccs3)n2Cc2ccco2)cc1 |  | inactive: 16.7% |
| N=c1c2c(n(Cc3ccc(Cl)c(Cl)c3)c3c1CCC3)CCCC2 | inconclusive: 10 µM [inhibitor, partial curve] |  |

As a working copy, part of the list above.

| Compound | Potency | activity change, negative = inhibition |
| --- | --- | --- |
| O=C(COC(=O)c1ccccc1-n1cnnn1)c1ccc(F)cc1 |  | inactive: -26.2% |
| O=C(CC(=O)NC1CCCCC1)N/N=C/c1ccccc1Cl |  | inactive: 2.19% |

— PubChem BioAssay AID540256 (National Center for Advancing Translational Sciences (NCATS), 2011)
